# Screening data, single-dose tests

By UniProt entry, the sequences of proteins in these tests, tags left out. Residues count along the entry.
UniProt P9WNZ1, whole entry: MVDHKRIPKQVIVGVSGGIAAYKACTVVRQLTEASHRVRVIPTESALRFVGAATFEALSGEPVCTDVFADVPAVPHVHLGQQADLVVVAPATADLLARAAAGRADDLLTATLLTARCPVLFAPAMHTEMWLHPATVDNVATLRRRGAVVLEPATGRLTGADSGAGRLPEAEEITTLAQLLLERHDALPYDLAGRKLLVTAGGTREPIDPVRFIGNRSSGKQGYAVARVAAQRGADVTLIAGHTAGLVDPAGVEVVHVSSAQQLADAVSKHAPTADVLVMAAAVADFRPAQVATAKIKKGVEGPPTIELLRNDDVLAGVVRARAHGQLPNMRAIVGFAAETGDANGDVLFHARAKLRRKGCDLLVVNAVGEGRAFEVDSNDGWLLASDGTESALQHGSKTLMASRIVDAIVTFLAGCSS
UniProt I6X8D2, whole entry: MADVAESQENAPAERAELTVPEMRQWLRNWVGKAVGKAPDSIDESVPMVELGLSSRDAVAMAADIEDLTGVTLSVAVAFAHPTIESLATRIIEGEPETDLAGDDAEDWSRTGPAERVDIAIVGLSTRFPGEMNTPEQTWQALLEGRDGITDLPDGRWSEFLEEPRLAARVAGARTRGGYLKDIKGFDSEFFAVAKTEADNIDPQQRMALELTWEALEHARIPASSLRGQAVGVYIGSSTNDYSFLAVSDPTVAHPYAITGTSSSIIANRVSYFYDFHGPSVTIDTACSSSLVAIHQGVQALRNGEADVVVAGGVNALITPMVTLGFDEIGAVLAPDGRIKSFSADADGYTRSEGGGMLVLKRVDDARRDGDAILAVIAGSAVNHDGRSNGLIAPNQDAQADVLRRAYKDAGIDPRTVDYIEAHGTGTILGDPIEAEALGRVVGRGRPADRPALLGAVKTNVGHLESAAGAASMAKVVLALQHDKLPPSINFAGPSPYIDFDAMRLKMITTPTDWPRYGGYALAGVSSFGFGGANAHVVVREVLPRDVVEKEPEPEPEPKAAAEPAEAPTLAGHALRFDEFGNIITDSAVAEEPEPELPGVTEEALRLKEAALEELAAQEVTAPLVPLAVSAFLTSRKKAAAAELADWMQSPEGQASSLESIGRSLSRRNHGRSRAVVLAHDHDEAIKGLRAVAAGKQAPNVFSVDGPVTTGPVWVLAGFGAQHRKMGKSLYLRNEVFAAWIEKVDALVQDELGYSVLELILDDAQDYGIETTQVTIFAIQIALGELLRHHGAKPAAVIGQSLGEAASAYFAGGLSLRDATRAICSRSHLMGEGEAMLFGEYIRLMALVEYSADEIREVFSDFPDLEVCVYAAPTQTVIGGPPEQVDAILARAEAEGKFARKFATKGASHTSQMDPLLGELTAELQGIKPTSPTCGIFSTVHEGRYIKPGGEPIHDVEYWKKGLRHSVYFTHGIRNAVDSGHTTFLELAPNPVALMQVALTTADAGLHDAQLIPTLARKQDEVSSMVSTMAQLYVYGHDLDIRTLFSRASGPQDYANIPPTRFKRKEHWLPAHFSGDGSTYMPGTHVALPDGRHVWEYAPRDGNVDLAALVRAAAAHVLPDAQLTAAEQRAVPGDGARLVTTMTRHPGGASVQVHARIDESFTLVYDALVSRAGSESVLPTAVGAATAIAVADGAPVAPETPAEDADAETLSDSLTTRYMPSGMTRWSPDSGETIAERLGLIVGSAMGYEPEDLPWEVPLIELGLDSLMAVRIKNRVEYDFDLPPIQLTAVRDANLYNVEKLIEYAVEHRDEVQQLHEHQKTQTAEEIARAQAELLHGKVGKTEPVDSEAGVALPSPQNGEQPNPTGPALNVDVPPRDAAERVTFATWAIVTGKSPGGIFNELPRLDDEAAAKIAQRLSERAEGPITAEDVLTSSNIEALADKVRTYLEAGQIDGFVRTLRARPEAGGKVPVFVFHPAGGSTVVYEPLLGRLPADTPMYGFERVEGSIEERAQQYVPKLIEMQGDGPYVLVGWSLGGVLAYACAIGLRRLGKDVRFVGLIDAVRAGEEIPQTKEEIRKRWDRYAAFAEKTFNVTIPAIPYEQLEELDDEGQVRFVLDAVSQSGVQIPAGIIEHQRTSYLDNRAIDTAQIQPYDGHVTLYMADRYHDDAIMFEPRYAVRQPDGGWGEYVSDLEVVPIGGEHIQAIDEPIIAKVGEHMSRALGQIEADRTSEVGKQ
UniProt P9WPC5, whole entry: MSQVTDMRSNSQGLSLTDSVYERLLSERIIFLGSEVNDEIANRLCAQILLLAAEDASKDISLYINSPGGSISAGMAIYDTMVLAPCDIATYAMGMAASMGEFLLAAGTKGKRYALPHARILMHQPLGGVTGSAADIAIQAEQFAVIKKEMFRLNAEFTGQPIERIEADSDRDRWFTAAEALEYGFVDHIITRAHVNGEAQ
UniProt P9WPC3, whole entry partner: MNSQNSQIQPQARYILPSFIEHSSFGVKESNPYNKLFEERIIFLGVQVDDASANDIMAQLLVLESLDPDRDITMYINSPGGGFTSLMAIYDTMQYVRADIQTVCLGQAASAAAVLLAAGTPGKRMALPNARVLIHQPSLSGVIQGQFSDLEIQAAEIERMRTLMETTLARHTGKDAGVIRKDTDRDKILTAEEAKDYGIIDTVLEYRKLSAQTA
UniProt Q4DA54, 1-478: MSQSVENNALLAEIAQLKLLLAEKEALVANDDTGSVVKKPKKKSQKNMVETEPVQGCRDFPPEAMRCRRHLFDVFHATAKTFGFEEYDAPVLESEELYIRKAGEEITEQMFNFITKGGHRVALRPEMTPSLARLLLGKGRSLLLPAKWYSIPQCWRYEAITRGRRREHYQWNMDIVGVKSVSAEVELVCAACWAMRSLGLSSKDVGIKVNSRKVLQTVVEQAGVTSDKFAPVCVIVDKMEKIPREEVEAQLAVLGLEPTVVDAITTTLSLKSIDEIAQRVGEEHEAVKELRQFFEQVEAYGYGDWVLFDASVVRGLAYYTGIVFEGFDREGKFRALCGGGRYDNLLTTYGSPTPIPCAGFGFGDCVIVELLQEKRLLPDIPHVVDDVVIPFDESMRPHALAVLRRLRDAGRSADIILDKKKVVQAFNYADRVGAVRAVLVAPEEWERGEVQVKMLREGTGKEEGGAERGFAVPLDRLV

The values are deposited in ChEMBL (CHEMBL3988442, “University of Dundee, Small-Polar-MMV Screening Library” (2021)).

A: 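Coenzyme A biosynthesis protein CoaBC, Mycobacterium tuberculosis (UniProt P9WNZ1). Enzyme assay of CoaBC with a phosphate dye (Biomol Green) read at 650 nm. Compounds at 30 µM. Direction is inferred from only a few compounds that gave an IC50; most scored high, so higher reads as stronger inhibition. Most strong results did not repeat in a second test. About 67,000 compounds were tested under these conditions; 0.06% (about 40) showed 50% or more at least once.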
B: 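Cell assay of Leishmania donovani living inside macrophages; the read-out is not stated. Tested at 30 µM. Direction is inferred from retests: higher values go with stronger inhibition. Of about 69,000 compounds tested this way, about 1,000 (1.5%) reached 50% or more in at least one test.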
C: 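Enzyme assay of the thioesterase domain of polyketide synthase 13; the read-out is not stated. Target: Polyketide synthase Pks13, Mycobacterium tuberculosis (UniProt I6X8D2). Concentration: 30 µM. Higher reads as stronger inhibition (inferred from which compounds were picked for retests). Size under these conditions: about 67,000 compounds, about 300 of them at 50% or above in at least one test.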
D: 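ClpP1P2, Mycobacterium tuberculosis (UniProt P9WPC5 and UniProt P9WPC3). Protease assay of ClpP1P2, read by the AMC dye that it sets free. Concentration: 50 µM. Direction is inferred from only a few compounds that gave an IC50; most scored high, so higher reads as stronger inhibition. Most other retested compounds had strongly negative values. Size under these conditions: about 69,000 compounds, about 10 of them at 50% or above in at least one test.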
E: 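Histidine-tRNA ligase, Trypanosoma cruzi CL Brener (UniProt Q4DA54). Enzyme assay of histidyl-tRNA synthetase; the read-out is not stated. Compounds at 30 µM. Higher reads as stronger inhibition (inferred: compounds with an IC50 in retests scored well above the rest). About 69,000 compounds were tested under these conditions; 0.045% (about 31) showed 50% or more at least once.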

Each number is a percent effect as filed.
The record does not define 0% and 100%; most values in the screen are far below 50% and negative numbers occur (in some assays of this library far below -100).
This is an unselected part of the compounds tested.

{"compound": "CCN(CC)Cc1cc(=O)n2c(n1)CN(S(=O)(=O)C1CC1)CCC2", "A": 0.8485, "C": 4.798, "D": -8.123, "E": 7.263}
{"compound": "Cc1cc(Nc2ncccn2)nc(C2CCCN(CCO)C2)n1", "stereo": "stereo not drawn", "A": 2.098, "B": 24.35, "C": 1.721, "D": -11.05, "E": 2.632}
{"compound": "COc1ccc(NC(=O)N(CC2CCOC2)C2CC2)cn1", "stereo": "stereo not drawn", "A": 5, "B": -3.742, "C": -11.89, "D": 1.484, "E": 6.745}
{"compound": "COCCN(Cc1ccoc1)S(=O)(=O)c1ccc(OC)c(Cl)c1", "A": 3.181, "B": -17.73, "C": 2.025, "D": -20.35, "E": 1.442}
{"compound": "COc1ccc(C2CCCN2C(=O)c2csc(NC(C)=O)n2)cc1", "stereo": "stereo not drawn", "A": 3.133, "B": 22.16, "C": -7.603, "D": -2.817, "E": -0.7634}
{"compound": "Cc1cnc(CN2CCCCC2c2nc(-c3ccccc3)no2)cn1", "stereo": "stereo not drawn", "A": 11.6, "B": -5.467, "C": -0.7004, "D": 13.51, "E": 2.299}
{"compound": "CCn1cc(NC(=O)NCC(C)N(C)C2CC2)cn1", "stereo": "stereo not drawn", "A": 4.199, "B": 20.38, "C": -15.3, "D": -20.28, "E": 6.286}
{"compound": "CN(CCc1cn[nH]c1)C(=O)CCc1ccc(Cl)cc1", "A": 0.7126, "B": -2.401, "C": 3.256, "D": -2.075, "E": 5.385}
{"compound": "CN(Cc1cccc(C(N)=O)c1)c1ncc(C(N)=O)cc1Cl", "A": 8.56, "B": 10.92, "C": 0.1553, "D": -0.6511, "E": 11.67}
{"compound": "CC(c1cccc(-c2ncc(C#N)c(N)n2)c1)N(C)C", "stereo": "stereo not drawn", "A": 2.892, "B": -18.48, "C": -4.951, "D": -3.72, "E": 5.941}
{"compound": "N#CCCN(CCC#N)C(=O)CN(C1CC1)C1CCc2ccccc21", "stereo": "stereo not drawn", "A": 1.869, "B": 18.48, "C": -19.56, "D": 7.523, "E": 2.212}
{"compound": "COCC1CN(C(=O)Cc2ccccn2)Cc2ncnn2C1.O=C(O)C(F)(F)F", "stereo": "stereo not drawn", "B": -2.744}
{"compound": "Cn1ccnc1CN1CCCN(C(=O)c2ccc3[nH]cnc3c2)CC1", "A": 5.492, "B": 17.96, "C": -9.227, "D": -17.89, "E": 1.734}
{"compound": "O=C(NCc1cccc(F)c1)c1cccc(C(=O)N2CCCC2)n1", "A": 3.515, "B": 29.5, "C": -0.3405, "D": -23.42, "E": 2.041}
{"compound": "CCc1ocnc1C(=O)N1CCCC(n2nc(C)nc2C)C1", "stereo": "stereo not drawn", "A": 3.325, "B": 15.71, "C": -16.07, "D": -18.31, "E": 2.941}
{"compound": "Cc1nc(CN2C[C@@H]3COC[C@]3(COCC(=O)N(C)C)C2)cs1", "A": 0.9877, "C": -7.658, "D": -6.733, "E": 3.738}
{"compound": "COc1ccccc1CN1CC[C@H]2C[C@@H](C(=O)N3CCCC3)O[C@H]2C1", "A": 3.929, "C": 1.236, "D": -15.06, "E": 5.435}
{"compound": "CC(NC(=O)NCCCn1cncn1)c1ccc(C#N)cc1", "stereo": "stereo not drawn", "A": 3.861, "B": 10.63, "C": -24.63, "D": -6.331, "E": 7.872}
{"compound": "Cc1n[nH]c(C)c1CC(=O)NCCc1ccccc1", "A": -3.269, "B": 30, "C": -20.03, "D": -9.533, "E": -3.96}
{"compound": "Cc1nccn1C1CCCN(C(=O)c2ccc(-n3cccn3)nc2)C1", "stereo": "stereo not drawn", "A": 5.492, "B": 17.43, "C": -24.06, "D": -25.51, "E": 4.624}
{"compound": "CCOC(=O)N1CCN(c2nc(NC3CC3)c3ccccc3n2)CC1", "A": -8.779, "C": -20.86, "D": 9.3, "E": 3.409}
{"compound": "CCC(=O)Nc1ccc(N2CCC(OC)CC2)c(C(F)(F)F)c1", "A": -0.6148, "B": 14.75, "C": -10.88, "D": -2.569, "E": 5.319}
{"compound": "CCc1nc(CN2CCOC(CN(CC)c3cccnn3)C2)cs1", "stereo": "stereo not drawn", "A": 7.991, "B": 18.08, "C": -23.29, "D": -2.535, "E": 0}
{"compound": "[H][C@]12C[C@H](C(=O)NC)N(C(C)=O)[C@@]1([H])CN(S(=O)(=O)c1ccccc1)C2", "B": 20.25}
{"compound": "CCN1CCCn2c(nc(CNC(=O)c3ccsc3)cc2=O)C1", "A": 12.6, "B": 22.15, "C": -20.58, "D": -4.588, "E": -2.762}

3 of the entries, repeated:

{"compound": "CN(CCc1cn[nH]c1)C(=O)CCc1ccc(Cl)cc1", "A": 0.7126, "B": -2.401, "C": 3.256, "D": -2.075, "E": 5.385}
{"compound": "Cc1cnc(CN2CCCCC2c2nc(-c3ccccc3)no2)cn1", "stereo": "stereo not drawn", "A": 11.6, "B": -5.467, "C": -0.7004, "D": 13.51, "E": 2.299}
{"compound": "COCC1CN(C(=O)Cc2ccccn2)Cc2ncnn2C1.O=C(O)C(F)(F)F", "stereo": "stereo not drawn", "B": -2.744}